Measured values: patent US10138195B2, “Organic compounds” (Givaudan, S. A., priority 2014, dated 2018)

Test: Odour description

SMILES	Odour
C=C(C)Cc1ccc(CCC=O)cc1 [Example 1, 3-(4-(2-Methylallyl)phenyl)propanal]	floral, green, cyclamen, watery
C=C(C)Cc1ccc(CC(C)C=O)cc1 (stereo not shown) [Example 3, 2-Methyl-3-(4-(2-methylallyl)phenyl)propanal]	aldehydic, metallic, watery, fatty
C=C(C)Cc1ccc(CCC=O)c(C)c1 [Example 4, 3-(2-Methyl-4-(2-methylallyl)phenyl) propanal]	floral, aldehydic, green, waxy, cinnamic, lilac
C=C(C)Cc1ccc(C(C)CC=O)cc1 (stereo not shown) [Example 2, 3-(4-(2-Methylallyl)phenyl)butanal]	floral, green, aldehydic, watery, buttery
